# Data from ChEMBL document CHEMBL4316593 (Eur J Med Chem, 2019).
# Further values from the same series stand in other lists.
# What was measured:
# Format in all cases: cell-based
# Conditions in all cases: U-87MG ATCC
# [1] = Inhibition of RTK/PI3K/AKT/mTOR signaling in human U87 cells assessed as down regulation of DGCR6L gene expression at cytotoxic IC50 measured after 48 hrs relative to control
# [2] = Inhibition of RTK/PI3K/AKT/mTOR signaling in human U87 cells assessed as down regulation of CDKN2C gene expression at cytotoxic IC50 measured after 48 hrs relative to control
# [3] = Inhibition of RTK/PI3K/AKT/mTOR signaling in human U87 cells assessed as down regulation of SCAF4 gene expression at cytotoxic IC50 measured after 48 hrs relative to control
# [4] = Inhibition of RTK/PI3K/AKT/mTOR signaling in human U87 cells assessed as down regulation of SLU7 gene expression at cytotoxic IC50 measured after 48 hrs relative to control
# [5] = Inhibition of RTK/PI3K/AKT/mTOR signaling in human U87 cells assessed as up regulation of SLCO4A1 gene expression at cytotoxic IC50 measured after 48 hrs relative to control
# [6] = Inhibition of RTK/PI3K/AKT/mTOR signaling in human U87 cells assessed as up regulation of dihydropyrimidinase like 2 gene expression at cytotoxic IC50 measured after 48 hrs relative to control
# [7] = Inhibition of RTK/PI3K/AKT/mTOR signaling in human U87 cells assessed as up regulation of RPL9 gene expression at cytotoxic IC50 measured after 48 hrs relative to control
# [8] = Inhibition of RTK/PI3K/AKT/mTOR signaling in human U87 cells assessed as down regulation of ZFYVE1 gene expression at cytotoxic IC50 measured after 48 hrs relative to control
# [9] = Inhibition of RTK/PI3K/AKT/mTOR signaling in human U87 cells assessed as up regulation of IER5L gene expression at cytotoxic IC50 measured after 48 hrs relative to control
# [10] = Inhibition of RTK/PI3K/AKT/mTOR signaling in human U87 cells assessed as down regulation of HAUS2 gene expression at cytotoxic IC50 measured after 48 hrs relative to control
# [11] = Inhibition of RTK/PI3K/AKT/mTOR signaling in human U87 cells assessed as up regulation of CFAP74 gene expression at cytotoxic IC50 measured after 48 hrs relative to control
# [12] = Inhibition of RTK/PI3K/AKT/mTOR signaling in human U87 cells assessed as up regulation of trafficking protein particle complex 6A gene expression at cytotoxic IC50 measured after 48 hrs relative to control
# [13] = Inhibition of RTK assessed as Inhibition of RTK/PI3K/AKT/mTOR signaling in human U87 cells assessed as down regulation of mTOR gene expression at cytotoxic IC50 measured after 48 hrs relative to control
# [14] = Inhibition of RTK/PI3K/AKT/mTOR signaling in human U87 cells assessed as up regulation of pleckstrin homology like domain family A member 1 gene expression at cytotoxic IC50 measured after 48 hrs relative to control
# [15] = Inhibition of RTK/PI3K/AKT/mTOR signaling in human U87 cells assessed as down regulation of NF1 gene expression at cytotoxic IC50 measured after 48 hrs relative to control
# [16] = Inhibition of RTK/PI3K/AKT/mTOR signaling in human U87 cells assessed as up regulation of ENO1 gene expression at cytotoxic IC50 measured after 48 hrs relative to control
# [17] = Inhibition of RTK/PI3K/AKT/mTOR signaling in human U87 cells assessed as up regulation of phosphatidylinositol glycan anchor biosynthesis class V gene expression at cytotoxic IC50 measured after 48 hrs relative to control
# [18] = Inhibition of RTK/PI3K/AKT/mTOR signaling in human U87 cells assessed as up regulation of Kruppel like factor 11 gene expression at cytotoxic IC50 measured after 48 hrs relative to control
# [19] = Inhibition of RTK/PI3K/AKT/mTOR signaling in human U87 cells assessed as up regulation of FAM84B gene expression at cytotoxic IC50 measured after 48 hrs relative to control
# [20] = Inhibition of RTK/PI3K/AKT/mTOR signaling in human U87 cells assessed as down regulation of NFATC3 gene expression at cytotoxic IC50 measured after 48 hrs relative to control
# [21] = Inhibition of RTK/PI3K/AKT/mTOR signaling in human U87 cells assessed as up regulation of ATL3 gene expression at cytotoxic IC50 measured after 48 hrs relative to control
# [22] = Inhibition of RTK/PI3K/AKT/mTOR signaling in human U87 cells assessed as up regulation of mex-3 RNA binding family member A gene expression at cytotoxic IC50 measured after 48 hrs relative to control
# [23] = Inhibition of RTK/PI3K/AKT/mTOR signaling in human U87 cells assessed as down regulation of CYHR1 gene expression at cytotoxic IC50 measured after 48 hrs relative to control
# [24] = Inhibition of RTK/PI3K/AKT/mTOR signaling in human U87 cells assessed as down regulation of KBTBD8 gene expression at cytotoxic IC50 measured after 48 hrs relative to control
# [25] = Inhibition of RTK/PI3K/AKT/mTOR signaling in human U87 cells assessed as down regulation of XPO4 gene expression at cytotoxic IC50 measured after 48 hrs relative to control
# [26] = Inhibition of RTK/PI3K/AKT/mTOR signaling in human U87 cells assessed as up regulation of echinoderm microtubule associated protein like 3 gene expression at cytotoxic IC50 measured after 48 hrs relative to control
# [27] = Inhibition of RTK/PI3K/AKT/mTOR signaling in human U87 cells assessed as up regulation of FK506 binding protein like gene expression at cytotoxic IC50 measured after 48 hrs relative to control
# [28] = Inhibition of RTK/PI3K/AKT/mTOR signaling in human U87 cells assessed as down regulation of MARK2 gene expression at cytotoxic IC50 measured after 48 hrs relative to control
# [29] = Inhibition of RTK/PI3K/AKT/mTOR signaling in human U87 cells assessed as down regulation of CD2BP2 gene expression at cytotoxic IC50 measured after 48 hrs relative to control
# [30] = Inhibition of RTK/PI3K/AKT/mTOR signaling in human U87 cells assessed as down regulation of RNF25 gene expression at cytotoxic IC50 measured after 48 hrs relative to control
# [31] = Inhibition of RTK/PI3K/AKT/mTOR signaling in human U87 cells assessed as down regulation of MINPP1 gene expression at cytotoxic IC50 measured after 48 hrs relative to control
# [32] = Inhibition of RTK/PI3K/AKT/mTOR signaling in human U87 cells assessed as down regulation of KLHL9 gene expression at cytotoxic IC50 measured after 48 hrs relative to control
compound,measurement,setting,value
CC(=O)C(=NNc1ccccc1C#N)C(C)=O,log2FC,[1],-1.03
same,log2FC,[2],-2.45
same,log2FC,[3],-0.673
same,log2FC,[4],-0.621
same,log2FC,[5],2.13
same,log2FC,[6],1.25
same,log2FC,[7],0.445
same,log2FC,[8],-1.05
same,log2FC,[9],1.89
same,log2FC,[10],-0.745
same,log2FC,[11],2.46
same,log2FC,[12],1.1
same,log2FC,[13],-1.09
same,log2FC,[14],1.29
same,log2FC,[15],-0.815
same,log2FC,[16],1.91
same,log2FC,[17],1.13
same,log2FC,[18],1.5
same,log2FC,[19],0.514
same,log2FC,[20],-0.785
same,log2FC,[21],0.532
same,log2FC,[22],1.51
same,log2FC,[23],-1.1
same,log2FC,[24],-3.86
same,log2FC,[25],-0.617
same,log2FC,[26],0.907
same,log2FC,[27],1.47
same,log2FC,[28],-0.746
same,log2FC,[29],-0.877
same,log2FC,[30],-0.843
same,log2FC,[31],-1.37
same,log2FC,[32],-1.02
